In publication PMC10917063 one finds binding data, which are given here for one molecule.

Results are given in words; binding and its absence hold for the method and conditions named. Tags and fused reporters may be left off the sequences shown.

This experiment has as its target T1, BicD, yeast two-hybrid fusion (Drosophila) (UniProt P16568).
T1 sequence: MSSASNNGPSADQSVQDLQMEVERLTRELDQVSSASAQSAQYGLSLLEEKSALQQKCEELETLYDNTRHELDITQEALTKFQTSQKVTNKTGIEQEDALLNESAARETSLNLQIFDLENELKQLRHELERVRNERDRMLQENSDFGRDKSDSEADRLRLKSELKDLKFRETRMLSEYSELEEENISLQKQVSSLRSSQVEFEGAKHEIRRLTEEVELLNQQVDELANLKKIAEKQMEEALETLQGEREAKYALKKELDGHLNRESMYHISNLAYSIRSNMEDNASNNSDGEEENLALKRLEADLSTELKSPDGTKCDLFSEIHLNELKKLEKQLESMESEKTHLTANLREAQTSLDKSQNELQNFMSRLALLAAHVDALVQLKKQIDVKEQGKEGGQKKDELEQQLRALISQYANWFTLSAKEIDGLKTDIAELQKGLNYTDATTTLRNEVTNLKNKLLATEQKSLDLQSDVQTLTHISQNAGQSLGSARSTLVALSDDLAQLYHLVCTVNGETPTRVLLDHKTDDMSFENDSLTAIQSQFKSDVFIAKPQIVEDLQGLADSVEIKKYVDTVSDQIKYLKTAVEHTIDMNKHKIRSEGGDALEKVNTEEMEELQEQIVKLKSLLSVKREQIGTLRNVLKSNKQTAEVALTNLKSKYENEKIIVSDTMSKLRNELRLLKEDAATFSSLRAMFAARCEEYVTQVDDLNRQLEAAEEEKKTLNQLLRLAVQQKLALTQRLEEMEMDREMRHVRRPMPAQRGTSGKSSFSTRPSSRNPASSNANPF
Briefly: two-hybrid; yeast two-hybrid; cDNAs in pOAD (AD) and pOBD2 (BD) vectors.

B1: EF1γ, full-length cDNA, yeast two-hybrid fusion (protein, UniProt Q9NJH0 1-431)
chain: MVKGTLYTYPENFRAYKALIAAQYSGAQVKVADNFKFGETNKSAEFLKKFPGGKVPAFETAEGQYLSESNAIAYLLANEQLRGGKCPFVQAQVQQWISFADNEIVPASCAWVFPLLGILPQQKNSTAKQEAEAVLQQLNQKLQDATFLAGERITLADIVVFSSLLHLYEYVLEPSVRSAFGNVNRWFVTILNQKQVQAVVKDYKLCEKALVFDPKKYAEFQAKTGAAKPQQQAQQQKQEKKPKEKKEAPKKAAEPAEELDAADEALAAEPKSKDPFDALPKGTFNFDDFKRVYSNEDEAKSIPYFFDKFDAENYSIWFGEYKYNEELSKVFMSCNLITGMFQRLDKMRKAAFASVCLFGEDGNSTISGIWVWRGQDLAFTLSPDWQIDYEVYDWKKLDAKSEETKKLVTQYFSWSGTDKDGRKFNQGKIFK
As to B1, the binding result was “no binding”.
